Laboratory results published in PMC3125213.
Results are given in words; binding and its absence hold for the method and conditions named. In cells and extracts the contact can be indirect. A yes stands for co-enrichment or nearness to the bait. Other partners may have been found.

The chains behind the UniProt entries cited, without tags or fusion partners.
UniProt P16403: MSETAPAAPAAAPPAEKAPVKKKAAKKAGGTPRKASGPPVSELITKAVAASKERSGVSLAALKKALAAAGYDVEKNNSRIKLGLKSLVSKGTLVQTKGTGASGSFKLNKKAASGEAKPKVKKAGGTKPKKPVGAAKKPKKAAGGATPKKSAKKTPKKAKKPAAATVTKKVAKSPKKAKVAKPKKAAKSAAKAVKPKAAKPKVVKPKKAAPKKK
UniProt Q8TDD1: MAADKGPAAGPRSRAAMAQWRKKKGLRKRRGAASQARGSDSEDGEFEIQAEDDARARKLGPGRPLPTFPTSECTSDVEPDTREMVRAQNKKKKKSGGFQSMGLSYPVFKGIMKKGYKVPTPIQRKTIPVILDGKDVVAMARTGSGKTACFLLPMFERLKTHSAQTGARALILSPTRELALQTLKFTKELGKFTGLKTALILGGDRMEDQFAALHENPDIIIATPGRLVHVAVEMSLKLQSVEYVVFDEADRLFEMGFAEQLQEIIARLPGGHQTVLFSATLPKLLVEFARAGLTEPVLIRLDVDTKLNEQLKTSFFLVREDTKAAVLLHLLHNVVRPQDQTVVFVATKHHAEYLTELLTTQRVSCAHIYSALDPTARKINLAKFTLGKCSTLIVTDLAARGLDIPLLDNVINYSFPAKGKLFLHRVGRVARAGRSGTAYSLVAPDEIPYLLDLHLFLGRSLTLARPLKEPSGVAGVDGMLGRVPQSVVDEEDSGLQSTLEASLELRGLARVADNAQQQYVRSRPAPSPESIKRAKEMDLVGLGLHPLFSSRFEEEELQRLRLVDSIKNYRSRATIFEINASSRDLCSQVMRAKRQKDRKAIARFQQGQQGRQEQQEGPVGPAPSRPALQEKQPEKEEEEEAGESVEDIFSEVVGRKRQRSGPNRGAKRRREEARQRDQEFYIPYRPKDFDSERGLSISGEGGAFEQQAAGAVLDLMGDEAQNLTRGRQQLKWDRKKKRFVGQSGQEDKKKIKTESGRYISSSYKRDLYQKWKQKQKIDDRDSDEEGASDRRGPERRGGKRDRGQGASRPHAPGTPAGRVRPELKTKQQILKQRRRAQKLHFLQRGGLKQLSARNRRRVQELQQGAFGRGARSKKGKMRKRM
UniProt P17844: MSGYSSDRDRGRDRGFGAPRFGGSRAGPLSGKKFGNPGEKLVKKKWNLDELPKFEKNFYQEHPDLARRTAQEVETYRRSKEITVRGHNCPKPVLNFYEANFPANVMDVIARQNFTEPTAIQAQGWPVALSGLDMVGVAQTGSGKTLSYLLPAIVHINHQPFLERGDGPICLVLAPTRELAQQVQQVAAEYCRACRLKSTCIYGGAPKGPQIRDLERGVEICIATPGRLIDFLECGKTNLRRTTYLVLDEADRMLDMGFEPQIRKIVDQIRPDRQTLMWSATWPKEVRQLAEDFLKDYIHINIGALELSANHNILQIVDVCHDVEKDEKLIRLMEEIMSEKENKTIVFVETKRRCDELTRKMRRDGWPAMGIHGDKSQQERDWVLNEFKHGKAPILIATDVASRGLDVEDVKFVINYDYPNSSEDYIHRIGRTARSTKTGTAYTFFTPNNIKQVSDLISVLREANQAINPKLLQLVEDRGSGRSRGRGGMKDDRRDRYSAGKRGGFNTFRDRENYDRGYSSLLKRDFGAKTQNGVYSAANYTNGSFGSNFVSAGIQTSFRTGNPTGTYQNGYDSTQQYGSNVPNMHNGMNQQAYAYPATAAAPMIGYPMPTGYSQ
UniProt Q09028: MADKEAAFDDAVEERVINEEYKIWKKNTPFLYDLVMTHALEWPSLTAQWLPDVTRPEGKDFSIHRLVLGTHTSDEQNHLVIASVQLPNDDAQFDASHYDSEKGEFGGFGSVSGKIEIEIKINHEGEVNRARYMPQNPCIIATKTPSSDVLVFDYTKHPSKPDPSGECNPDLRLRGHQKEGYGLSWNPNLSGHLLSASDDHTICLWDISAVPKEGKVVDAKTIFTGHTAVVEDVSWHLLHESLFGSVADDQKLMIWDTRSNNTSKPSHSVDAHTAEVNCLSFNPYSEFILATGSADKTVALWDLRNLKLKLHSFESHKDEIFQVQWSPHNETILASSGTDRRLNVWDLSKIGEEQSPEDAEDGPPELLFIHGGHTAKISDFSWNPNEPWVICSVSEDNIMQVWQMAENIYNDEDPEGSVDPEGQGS
UniProt P11166: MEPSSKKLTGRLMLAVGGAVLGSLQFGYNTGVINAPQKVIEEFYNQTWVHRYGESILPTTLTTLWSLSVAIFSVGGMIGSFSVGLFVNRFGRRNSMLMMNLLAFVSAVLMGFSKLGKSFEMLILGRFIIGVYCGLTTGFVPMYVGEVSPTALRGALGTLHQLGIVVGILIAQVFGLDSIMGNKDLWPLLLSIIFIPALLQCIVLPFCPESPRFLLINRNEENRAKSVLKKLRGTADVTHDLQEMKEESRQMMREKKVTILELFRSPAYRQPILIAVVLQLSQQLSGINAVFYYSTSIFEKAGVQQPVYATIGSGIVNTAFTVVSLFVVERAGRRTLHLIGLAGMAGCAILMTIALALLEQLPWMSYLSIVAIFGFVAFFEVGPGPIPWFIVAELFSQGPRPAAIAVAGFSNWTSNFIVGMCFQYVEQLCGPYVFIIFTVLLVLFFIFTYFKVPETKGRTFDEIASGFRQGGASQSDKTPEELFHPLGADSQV
UniProt Q12802: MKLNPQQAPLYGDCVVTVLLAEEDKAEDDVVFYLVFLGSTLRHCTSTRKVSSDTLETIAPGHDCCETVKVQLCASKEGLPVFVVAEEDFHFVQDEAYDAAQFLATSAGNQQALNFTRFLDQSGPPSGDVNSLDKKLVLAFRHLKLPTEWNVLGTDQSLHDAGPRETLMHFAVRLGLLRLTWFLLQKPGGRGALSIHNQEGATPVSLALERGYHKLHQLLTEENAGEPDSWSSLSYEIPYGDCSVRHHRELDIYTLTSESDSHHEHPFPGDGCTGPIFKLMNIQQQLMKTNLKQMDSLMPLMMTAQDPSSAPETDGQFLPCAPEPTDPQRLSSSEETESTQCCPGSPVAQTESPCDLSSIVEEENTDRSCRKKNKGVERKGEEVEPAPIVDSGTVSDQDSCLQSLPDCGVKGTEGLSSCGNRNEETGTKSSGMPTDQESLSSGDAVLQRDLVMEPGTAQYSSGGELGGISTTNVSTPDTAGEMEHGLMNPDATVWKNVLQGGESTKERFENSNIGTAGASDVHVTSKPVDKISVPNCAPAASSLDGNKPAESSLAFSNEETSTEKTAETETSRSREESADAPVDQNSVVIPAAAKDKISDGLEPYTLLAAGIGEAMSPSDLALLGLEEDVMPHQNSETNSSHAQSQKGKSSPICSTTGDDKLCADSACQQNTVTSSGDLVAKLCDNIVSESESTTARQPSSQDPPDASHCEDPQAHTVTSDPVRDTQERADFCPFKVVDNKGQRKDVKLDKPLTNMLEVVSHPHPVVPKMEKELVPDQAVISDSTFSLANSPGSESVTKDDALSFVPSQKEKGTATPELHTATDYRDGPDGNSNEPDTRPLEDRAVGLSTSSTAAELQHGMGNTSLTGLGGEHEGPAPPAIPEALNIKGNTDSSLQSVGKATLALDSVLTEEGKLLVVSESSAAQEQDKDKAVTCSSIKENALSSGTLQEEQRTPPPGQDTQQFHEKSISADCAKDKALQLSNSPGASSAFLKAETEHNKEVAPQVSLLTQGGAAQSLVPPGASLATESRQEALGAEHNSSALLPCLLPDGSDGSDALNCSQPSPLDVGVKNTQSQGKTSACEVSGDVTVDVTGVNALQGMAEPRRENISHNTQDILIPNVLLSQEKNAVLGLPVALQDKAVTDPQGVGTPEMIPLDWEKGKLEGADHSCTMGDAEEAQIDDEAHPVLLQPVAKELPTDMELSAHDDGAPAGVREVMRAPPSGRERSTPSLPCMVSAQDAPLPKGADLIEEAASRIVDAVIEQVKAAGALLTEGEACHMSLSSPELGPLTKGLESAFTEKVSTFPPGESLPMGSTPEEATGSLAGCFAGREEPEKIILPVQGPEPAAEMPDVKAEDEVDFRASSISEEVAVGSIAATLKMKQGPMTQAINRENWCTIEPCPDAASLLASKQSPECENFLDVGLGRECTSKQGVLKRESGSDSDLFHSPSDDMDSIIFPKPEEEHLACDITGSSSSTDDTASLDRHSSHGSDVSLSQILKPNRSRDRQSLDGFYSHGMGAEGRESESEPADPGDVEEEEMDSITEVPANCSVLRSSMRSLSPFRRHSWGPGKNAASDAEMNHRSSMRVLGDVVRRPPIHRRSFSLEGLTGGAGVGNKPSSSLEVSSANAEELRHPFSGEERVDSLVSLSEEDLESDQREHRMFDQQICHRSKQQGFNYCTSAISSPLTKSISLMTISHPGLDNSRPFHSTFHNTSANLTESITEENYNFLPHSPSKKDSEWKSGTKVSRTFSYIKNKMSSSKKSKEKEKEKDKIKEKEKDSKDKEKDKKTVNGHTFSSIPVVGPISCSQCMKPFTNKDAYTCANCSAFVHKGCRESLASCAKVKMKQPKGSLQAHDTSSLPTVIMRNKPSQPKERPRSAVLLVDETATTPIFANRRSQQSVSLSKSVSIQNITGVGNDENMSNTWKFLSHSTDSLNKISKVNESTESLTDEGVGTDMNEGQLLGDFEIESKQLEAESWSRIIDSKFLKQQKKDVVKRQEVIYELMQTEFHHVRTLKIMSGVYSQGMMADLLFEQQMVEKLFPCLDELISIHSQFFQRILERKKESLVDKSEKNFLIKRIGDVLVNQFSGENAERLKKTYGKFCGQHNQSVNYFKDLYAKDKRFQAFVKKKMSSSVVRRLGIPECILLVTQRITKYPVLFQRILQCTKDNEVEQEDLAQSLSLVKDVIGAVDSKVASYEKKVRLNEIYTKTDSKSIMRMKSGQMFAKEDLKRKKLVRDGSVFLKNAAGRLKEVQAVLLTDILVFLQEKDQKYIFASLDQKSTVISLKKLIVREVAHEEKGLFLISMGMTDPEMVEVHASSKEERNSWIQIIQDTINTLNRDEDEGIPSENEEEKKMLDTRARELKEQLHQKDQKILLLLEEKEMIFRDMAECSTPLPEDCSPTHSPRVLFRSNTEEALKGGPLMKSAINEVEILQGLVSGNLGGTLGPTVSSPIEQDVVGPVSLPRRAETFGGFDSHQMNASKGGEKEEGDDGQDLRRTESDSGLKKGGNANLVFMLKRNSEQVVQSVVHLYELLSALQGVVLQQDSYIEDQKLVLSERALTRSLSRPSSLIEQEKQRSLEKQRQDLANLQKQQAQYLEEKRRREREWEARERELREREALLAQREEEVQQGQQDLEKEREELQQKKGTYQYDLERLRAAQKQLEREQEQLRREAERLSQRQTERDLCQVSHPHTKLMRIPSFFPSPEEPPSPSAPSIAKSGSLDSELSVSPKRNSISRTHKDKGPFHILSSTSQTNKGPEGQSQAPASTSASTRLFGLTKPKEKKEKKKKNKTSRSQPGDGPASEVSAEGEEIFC
UniProt P17096: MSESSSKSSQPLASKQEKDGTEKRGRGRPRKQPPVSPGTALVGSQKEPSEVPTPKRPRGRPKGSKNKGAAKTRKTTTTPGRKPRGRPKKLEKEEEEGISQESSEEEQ
UniProt P05198: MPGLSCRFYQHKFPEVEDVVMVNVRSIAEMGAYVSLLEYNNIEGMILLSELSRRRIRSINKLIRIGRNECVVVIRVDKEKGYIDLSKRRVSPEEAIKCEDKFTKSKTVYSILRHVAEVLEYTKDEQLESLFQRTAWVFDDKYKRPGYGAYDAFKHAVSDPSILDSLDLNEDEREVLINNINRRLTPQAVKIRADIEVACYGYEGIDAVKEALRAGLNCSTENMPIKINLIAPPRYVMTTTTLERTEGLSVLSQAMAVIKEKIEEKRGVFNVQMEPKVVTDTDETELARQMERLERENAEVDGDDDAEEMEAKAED
UniProt Q92841: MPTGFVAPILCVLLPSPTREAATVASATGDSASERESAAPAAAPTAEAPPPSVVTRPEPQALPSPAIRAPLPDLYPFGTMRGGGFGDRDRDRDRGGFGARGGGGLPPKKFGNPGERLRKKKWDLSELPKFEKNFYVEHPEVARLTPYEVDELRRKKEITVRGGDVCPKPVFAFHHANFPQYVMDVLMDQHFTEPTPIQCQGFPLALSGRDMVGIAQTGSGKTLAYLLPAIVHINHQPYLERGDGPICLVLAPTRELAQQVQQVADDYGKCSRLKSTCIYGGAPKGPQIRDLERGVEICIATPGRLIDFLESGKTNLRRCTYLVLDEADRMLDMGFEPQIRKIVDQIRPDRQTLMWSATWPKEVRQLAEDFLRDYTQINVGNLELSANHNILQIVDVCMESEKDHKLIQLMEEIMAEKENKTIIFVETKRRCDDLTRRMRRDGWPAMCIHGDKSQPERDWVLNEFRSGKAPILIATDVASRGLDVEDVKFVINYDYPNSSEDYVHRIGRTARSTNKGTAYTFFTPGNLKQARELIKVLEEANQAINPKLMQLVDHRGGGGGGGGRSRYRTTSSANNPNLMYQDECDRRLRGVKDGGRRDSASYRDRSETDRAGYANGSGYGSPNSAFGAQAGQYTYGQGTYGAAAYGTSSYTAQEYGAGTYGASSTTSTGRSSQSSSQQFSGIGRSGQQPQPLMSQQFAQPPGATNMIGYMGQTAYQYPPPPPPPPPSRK

Target: T1, TAR-RNA binding protein 2 (human) (UniProt Q15633)
T1 sequence: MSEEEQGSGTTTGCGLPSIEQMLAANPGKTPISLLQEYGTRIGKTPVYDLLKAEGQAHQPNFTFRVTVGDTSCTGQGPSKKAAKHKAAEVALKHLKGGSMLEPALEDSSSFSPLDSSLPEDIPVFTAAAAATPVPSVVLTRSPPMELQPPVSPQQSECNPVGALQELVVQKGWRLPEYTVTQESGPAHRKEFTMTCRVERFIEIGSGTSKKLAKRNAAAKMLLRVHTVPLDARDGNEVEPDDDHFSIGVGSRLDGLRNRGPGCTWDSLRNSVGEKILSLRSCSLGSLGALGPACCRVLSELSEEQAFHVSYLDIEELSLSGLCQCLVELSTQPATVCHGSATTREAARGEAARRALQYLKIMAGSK
Assay: affinity purification with mass spectrometry; lysates of HeLa cells overexpressing Flag-TRBP immunoprecipitated with monoclonal anti-Flag agarose, eluted with 3X Flag polypeptides, SDS gel, fifteen Coomassie bands excised and analysed by LC-MS/MS; identifications of the mock-transfected sample subtracted

## HIST1H1C (from UniProt P16403 1-213)
  binding: binds

## ABCF1 (from UniProt Q8NE71 1-845)
  binding: binds

## ATP5B (from UniProt P06576 48-529)
  binding: binds

## PTBP1 (from UniProt P26599 1-557)
  binding: binds

## CHD4 (from UniProt Q14839 1-1912)
  binding: binds

## CDC5L (from UniProt Q99459 1-802)
  binding: binds

## PABPC1 (from UniProt P11940 1-636)
  binding: binds

## DDX54 (from UniProt Q8TDD1 1-881)
  binding: binds

## DDX5 (from UniProt P17844 1-614)
  binding: binds

## RBBP4 (from UniProt Q09028 1-425)
  binding: binds

## SOX21 (from UniProt Q9Y651 1-276)
  binding: binds

## PPP1R9B (from UniProt Q96SB3 1-817)
  binding: binds

## SLC2A1 (from UniProt P11166 1-492)
  binding: binds

## DBN1 (from UniProt Q16643 1-649)
  binding: binds

## AKAP13 (from UniProt Q12802 1-2813)
  binding: binds

## HMGA1 (from UniProt P17096 1-107)
  binding: binds

## EEF1A2 (from UniProt Q05639 1-463)
  binding: binds

## EIF2AK2 (from UniProt P19525 1-551)
  binding: binds

## EIF2S1 (from UniProt P05198 1-315)
  binding: binds

## SNRPD3 (from UniProt P62318 1-126)
  binding: binds

## DIDO1 (from UniProt Q9BTC0 1-2240)
  binding: binds

## TOP1 (from UniProt P11387 1-765)
  binding: binds

## DDX17 (from UniProt Q92841 1-729)
  binding: binds

## SYNCRIP (from UniProt O60506 1-623)
  binding: binds

## SFRS1 (from UniProt Q07955 1-248)
  binding: binds

## PRMT5 (from UniProt O14744 1-637)
  binding: binds

## PARP1 (from UniProt P09874 1-1014)
  binding: binds

## HNRPAB (from UniProt Q99729 1-332)
  binding: binds

## RAP1B (from UniProt P61224 1-184)
  binding: binds

## DNAJA3 (human (endogenous in HeLa))
  binding: binds

B1: U2AF1 (protein, UniProt Q01081 1-240)
chain: MAEYLASIFGTEKDKVNCSFYFKIGACRHGDRCSRLHNKPTFSQTIALLNIYRNPQNSSQSADGLRCAVSDVEMQEHYDEFFEEVFTEMEEKYGEVEEMNVCDNLGDHLVGNVYVKFRREEDAEKAVIDLNNRWFNGQPIHAELSPVTDFREACCRQYEMGECTRGGFCNFMHLKPISRELRRELYGRRRKKHRSRSRSRERRSRSRDRGRGGGGGGGGGGGGRERDRRRSRDRERSGRF
  binding: binds

B2: ATP5F1 (protein, UniProt P24539 43-256)
chain: PVPPLPEYGGKVRYGLIPEEFFQFLYPKTGVTGPYVLGTGLILYALSKEIYVISAETFTALSVLGVMVYGIKKYGPFVADFADKLNEQKLAQLEEAKQASIQHIQNAIDTEKSQQALVQKRHYLFDVQRNNIAMALEVTYRERLYRVYKEVKNRLDYHISVQNMMRRKEQEHMINWVEKHVVQSISTQQEKETIAKCIADLKLLAKKAQAQPVM
  binding: binds

B3: CCT2 (protein, UniProt P78371 1-535)
chain: MASLSLAPVNIFKAGADEERAETARLTSFIGAIAIGDLVKSTLGPKGMDKILLSSGRDASLMVTNDGATILKNIGVDNPAAKVLVDMSRVQDDEVGDGTTSVTVLAAELLREAESLIAKKIHPQTIIAGWREATKAAREALLSSAVDHGSDEVKFRQDLMNIAGTTLSSKLLTHHKDHFTKLAVEAVLRLKGSGNLEAIHIIKKLGGSLADSYLDEGFLLDKKIGVNQPKRIENAKILIANTGMDTDKIKIFGSRVRVDSTAKVAEIEHAEKEKMKEKVERILKHGINCFINRQLIYNYPEQLFGAAGVMAIEHADFAGVERLALVTGGEIASTFDHPELVKLGSCKLIEEVMIGEDKLIHFSGVALGEACTIVLRGATQQILDEAERSLHDALCVLAQTVKDSRTVYGGGCSEMLMAHAVTQLANRTPGKEAVAMESYAKALRMLPTIIADNAGYDSADLVAQLRAAHSEGNTTAGLDMREGTIGDMAILGITESFQVKRQVLLSAAEAAEVILRVDNIIKAAPRKRVPDHHPC
  binding: binds

B4: DCD (protein, UniProt P81605 20-110)
chain: YDPEAASAPGSGNPCHEASAAQKENAGEDPGLARQAPKPRKQRSSLLEKGLDGAKKAVGGLGKLGKDAVEDLESVGKGAVHDVKDVLDSVL
  binding: binds

B5: HNRPM (protein, UniProt P52272 1-730)
chain: MAAGVEAAAEVAATEIKMEEESGAPGVPSGNGAPGPKGEGERPAQNEKRKEKNIKRGGNRFEPYANPTKRYRAFITNIPFDVKWQSLKDLVKEKVGEVTYVELLMDAEGKSRGCAVVEFKMEESMKKAAEVLNKHSLSGRPLKVKEDPDGEHARRAMQKVMATTGGMGMGPGGPGMITIPPSILNNPNIPNEIIHALQAGRLGSTVFVANLDYKVGWKKLKEVFSMAGVVVRADILEDKDGKSRGIGTVTFEQSIEAVQAISMFNGQLLFDRPMHVKMDERALPKGDFFPPERPQQLPHGLGGIGMGLGPGGQPIDANHLNKGIGMGNIGPAGMGMEGIGFGINKMGGMEGPFGGGMENMGRFGSGMNMGRINEILSNALKRGEIIAKQGGGGGGGSVPGIERMGPGIDRLGGAGMERMGAGLGHGMDRVGSEIERMGLVMDRMGSVERMGSGIERMGPLGLDHMASSIERMGQTMERIGSGVERMGAGMGFGLERMAAPIDRVGQTIERMGSGVERMGPAIERMGLSMERMVPAGMGAGLERMGPVMDRMATGLERMGANNLERMGLERMGANSLERMGLERMGANSLERMGPAMGPALGAGIERMGLAMGGGGGASFDRAIEMERGNFGGSFAGSFGGAGGHAPGVARKACQIFVRNLPFDFTWKMLKDKFNECGHVLYADIKMENGKSKGCGVVKFESPEVAERACRMMNGMKLSGREIDVRIDRNA
  binding: binds

B6: SART1 (protein, UniProt O43290 1-800)
chain: MGSSKKHRGEKEAAGTTAAAGTGGATEQPPRHREHKKHKHRSGGSGGSGGERRKRSRERGGERGSGRRGAEAEARSSTHGRERSQAEPSERRVKREKRDDGYEAAASSKTSSGDASSLSIEETNKLRAKLGLKPLEVNAIKKEAGTKEEPVTADVINPMALRQREELREKLAAAKEKRLLNQKLGKIKTLGEDDPWLDDTAAWIERSRQLQKEKDLAEKRAKLLEEMDQEFGVSTLVEEEFGQRRQDLYSARDLQGLTVEHAIDSFREGETMILTLKDKGVLQEEEDVLVNVNLVDKERAEKNVELRKKKPDYLPYAEDESVDDLAQQKPRSILSKYDEELEGERPHSFRLEQGGTADGLRERELEEIRAKLRLQAQSLSTVGPRLASEYLTPEEMVTFKKTKRRVKKIRKKEKEVVVRADDLLPLGDQTQDGDFGSRLRGRGRRRVSEVEEEKEPVPQPLPSDDTRVENMDISDEEEGGAPPPGSPQVLEEDEAELELQKQLEKGRRLRQLQQLQQLRDSGEKVVEIVKKLESRQRGWEEDEDPERKGAIVFNATSEFCRTLGEIPTYGLAGNREEQEELMDFERDEERSANGGSESDGEENIGWSTVNLDEEKQQQDFSASSTTILDEEPIVNRGLAAALLLCQNKGLLETTVQKVARVKAPNKSLPSAVYCIEDKMAIDDKYSRREEYRGFTQDFKEKDGYKPDVKIEYVDETGRKLTPKEAFRQLSHRFHGKGSGKMKTERRMKKLDEEALLKKMSSSDTPLGTVALLQEKQKAQKTPYIVLSGSGKSMNANTITK
  binding: binds
